Source: PubChem BioAssay AID1259405 (NCATS, 2018)

Screen: 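Silenced genes that increase secreted GFP made by CHO cells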 (primary screen)
Cells: Chinese hamster CHO-K1 ovary cells with stable secreted eGFP expression
Reagent: single siRNA against mouse genes, 0.8 pmol siRNA per well (2 µl of 400 nM stock)
Time to read-out: 3 days
Detection: 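Percent of the per-plate non-targeting control median for intracellular GFP per well by laser scanning cytometry and for cell viability by ATP luminescence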
Direction: GFP, % of control: higher = more GFP per well, higher productivity; viability (ATP), % of control: higher = more viable cells (more ATP)
Hit rule: 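Called active when intracellular GFP, relative to negative control, is at or above 120%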
Shown is one part, drawn at random, of about 50,000 reagents tested. Over the whole deposit, about 4,000 (8%) got an active call. 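Mouse siRNA library applied to hamster cells; one well for each siRNA.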 A number with no mark means an inactive call. No sequences are given here.

| target | PubChem SID | GFP, % of control | viability (ATP), % of control |
| --- | --- | --- | --- |
| Rassf4 (Ras association (RalGDS/AF-6) domain family member 4) | SID363570009 | 55.8 | 80.7 |
| Rassf4 (Ras association (RalGDS/AF-6) domain family member 4) | SID363576345 | 89.3 | 75.2 |
| Rassf4 (Ras association (RalGDS/AF-6) domain family member 4) | SID363579513 | 52.7 | 54.7 |
| Zcchc10 (zinc finger, CCHC domain containing 10) | SID363556867 | 31.7 | 32 |
| Zcchc10 (zinc finger, CCHC domain containing 10) | SID363563771 | 79 | 42.4 |
| Zcchc10 (zinc finger, CCHC domain containing 10) | SID363587317 | 71.1 | 100 |
| Marchf8 (membrane associated ring-CH-type finger 8) | SID363541892 | 57.5 | 63.2 |
| Marchf8 (membrane associated ring-CH-type finger 8) | SID363553484 | 62.4 | 49 |
| Marchf8 (membrane associated ring-CH-type finger 8) | SID363566808 | 43.3 | 75.2 |
| Klkb1 (kallikrein B, plasma 1) | SID363574502 | 47.7 | 70.3 |
| Klkb1 (kallikrein B, plasma 1) | SID363575558 | 38.2 | 39.8 |
| Klkb1 (kallikrein B, plasma 1) | SID363580134 | 57.3 | 74.6 |
| Extl2 (exostosin-like glycosyltransferase 2) | SID363545418 | 61.2 | 72.7 |
| Extl2 (exostosin-like glycosyltransferase 2) | SID363548931 | 74.1 | 56.8 |
| Extl2 (exostosin-like glycosyltransferase 2) | SID363562737 | 74.8 | 61.7 |
| Parvb (parvin, beta) | SID363541454 | 46.6 | 67.7 |
| Parvb (parvin, beta) | SID363556081 | 66 | 70.8 |
| Parvb (parvin, beta) | SID363566370 | 169 (active) | 55.1 |
| Fn3krp (fructosamine 3 kinase related protein) | SID363569074 | 80.1 | 102 |
| Fn3krp (fructosamine 3 kinase related protein) | SID363583506 | 56.6 | 61.4 |
| Dusp22 (dual specificity phosphatase 22) | SID363547614 | 138 (active) | 77 |
| Dusp22 (dual specificity phosphatase 22) | SID363558383 | 73 | 58.4 |
| Dusp22 (dual specificity phosphatase 22) | SID363560141 | 53.2 | 94.2 |
| Skil (SKI-like proto-oncogene) | SID363573729 | 80.7 | 78.1 |
| Skil (SKI-like proto-oncogene) | SID363581473 | 92.1 | 90.3 |
| Skil (SKI-like proto-oncogene) | SID363583937 | 86.5 | 118 |
| Dtwd1 (DTW domain containing 1) | SID363543664 | 95.5 | 97.9 |
| Dtwd1 (DTW domain containing 1) | SID363553157 | 94.3 | 90.5 |
| Dtwd1 (DTW domain containing 1) | SID363559005 | 47.2 | 70.5 |
| Grm3 (glutamate receptor, metabotropic 3) | SID363571366 | 88.9 | 88 |
| Grm3 (glutamate receptor, metabotropic 3) | SID363571718 | 25.1 | 33.3 |
| Grm3 (glutamate receptor, metabotropic 3) | SID363572070 | 69.5 | 74.4 |
| 1700030K09Rik (RIKEN cDNA 1700030K09 gene) | SID363543648 | 55 | 94.7 |
| 1700030K09Rik (RIKEN cDNA 1700030K09 gene) | SID363553141 | 91 | 46.1 |
| 1700030K09Rik (RIKEN cDNA 1700030K09 gene) | SID363558989 | 79.9 | 125 |
| Pus7 (pseudouridylate synthase 7) | SID363554090 | 67.4 | 41.1 |
| Pus7 (pseudouridylate synthase 7) | SID363562047 | 98.4 | 76 |
| Pus7 (pseudouridylate synthase 7) | SID363565785 | 60.3 | 32.9 |
| Krtap3-3 (keratin associated protein 3-3) | SID363540412 | 50 | 70 |
| Krtap3-3 (keratin associated protein 3-3) | SID363542164 | 43.1 | 44.4 |
| Krtap3-3 (keratin associated protein 3-3) | SID363567080 | 61 | 61.5 |
| Phc1 (polyhomeotic 1) | SID363569242 | 74.3 | 77.9 |
| Phc1 (polyhomeotic 1) | SID363583674 | 78.8 | 103 |
| Ndufb11b (NADH:ubiquinone oxidoreductase subunit B11B) | SID363543656 | 67.8 | 74.2 |
| Ndufb11b (NADH:ubiquinone oxidoreductase subunit B11B) | SID363553149 | 80.7 | 73.3 |
| Ndufb11b (NADH:ubiquinone oxidoreductase subunit B11B) | SID363558997 | 49.5 | 82.8 |
| Vmn2r123 (vomeronasal 2, receptor 123) | SID363545082 | 109 | 61.1 |
| Vmn2r123 (vomeronasal 2, receptor 123) | SID363551410 | 85.8 | 96.7 |
| Vmn2r123 (vomeronasal 2, receptor 123) | SID363557959 | 80.1 | 76.5 |
| Kat6b (K(lysine) acetyltransferase 6B) | SID363545869 | 76.7 | 87.1 |
| Kat6b (K(lysine) acetyltransferase 6B) | SID363549382 | 54.7 | 60.8 |
| Kat6b (K(lysine) acetyltransferase 6B) | SID363563188 | 122 (active) | 57.3 |
| Azin2 (antizyme inhibitor 2) | SID363573082 | 45.1 | 67.4 |
| Azin2 (antizyme inhibitor 2) | SID363577658 | 87.9 | 99.2 |
| Azin2 (antizyme inhibitor 2) | SID363581178 | 91.2 | 78.6 |
| Ak2 (adenylate kinase 2) | SID363570973 | 70.7 | 66.8 |
| Rpap2 (RNA polymerase II associated protein 2) | SID363546519 | 65.5 | 82.6 |
| Rpap2 (RNA polymerase II associated protein 2) | SID363548275 | 54.2 | 73.9 |
| Rpap2 (RNA polymerase II associated protein 2) | SID363560453 | 50.2 | 67.2 |

Records listed so far called active (3):
| target | PubChem SID | GFP, % of control | viability (ATP), % of control |
| --- | --- | --- | --- |
| Parvb (parvin, beta) | SID363566370 | 169 (active) | 55.1 |
| Dusp22 (dual specificity phosphatase 22) | SID363547614 | 138 (active) | 77 |
| Kat6b (K(lysine) acetyltransferase 6B) | SID363563188 | 122 (active) | 57.3 |
